Measurements reported in PubChem BioAssay AID652272 (Drosophila RNAi Screening Center, 2013)
The screen tested about 21,000 reagents; this is a random part of those that have a named target and a result. Of all reagents, 503 (2.4%) got an active call. 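Raw plate light values, not normalised; calls rest on replicate z-scores that were not deposited; hits include reporter decreases as well as increases.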 Not given: the amount of reagent, the time to read-out.

Screen: 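Finding fly genes that regulate Hedgehog signal transduction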 (primary screen)
Cell system: Drosophila clone 8 (Cl8) cells
Knock-down reagent: long dsRNA against Drosophila genes
Measurement: 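Plate reader light from a firefly reporter under a ptc promoter fragment that responds to Hedgehog, with Renilla light as transfection reference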
Direction: firefly Hh reporter signal: higher = more ptc reporter light; Renilla reference signal: higher = more Renilla control light
Hit rule: 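Hit when the z-score averaged over two replicates is under -2 or over +3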
Meaning of the calls: active = hit: reporter lowered or raised; inactive = not a hit

Pli [DRSC16792] — firefly Hh reporter signal, replicate 1 = 1.31e5; firefly Hh reporter signal, replicate 2 = 81242; Renilla reference signal, replicate 1 = 5187; Renilla reference signal, replicate 2 = 2649; Outcome = inactive
SmydA-7 [DRSC07340] — firefly Hh reporter signal, replicate 1 = 1.16e5; firefly Hh reporter signal, replicate 2 = 89733; Renilla reference signal, replicate 1 = 5072; Renilla reference signal, replicate 2 = 3325; Outcome = inactive
tw [DRSC18537] — firefly Hh reporter signal, replicate 1 = 71702; firefly Hh reporter signal, replicate 2 = 89600; Renilla reference signal, replicate 1 = 1413; Renilla reference signal, replicate 2 = 2455; Outcome = inactive
Fdx2 [DRSC08306] — firefly Hh reporter signal, replicate 1 = 1.32e5; firefly Hh reporter signal, replicate 2 = 56892; Renilla reference signal, replicate 1 = 4761; Renilla reference signal, replicate 2 = 217; Outcome = inactive
CG2955 [DRSC00552] — firefly Hh reporter signal, replicate 1 = 62656; firefly Hh reporter signal, replicate 2 = 80678; Renilla reference signal, replicate 1 = 3047; Renilla reference signal, replicate 2 = 3285; Outcome = inactive
Hou [DRSC20001] — firefly Hh reporter signal, replicate 1 = 2.02e5; firefly Hh reporter signal, replicate 2 = 1.18e5; Renilla reference signal, replicate 1 = 4528; Renilla reference signal, replicate 2 = 2612; Outcome = inactive
CG31789 [DRSC01645] — firefly Hh reporter signal, replicate 1 = 84114; firefly Hh reporter signal, replicate 2 = 2.72e5; Renilla reference signal, replicate 1 = 2501; Renilla reference signal, replicate 2 = 10437; Outcome = inactive
Fum2 [DRSC18345] — firefly Hh reporter signal, replicate 1 = 79458; firefly Hh reporter signal, replicate 2 = 1.90e5; Renilla reference signal, replicate 1 = 3559; Renilla reference signal, replicate 2 = 9366; Outcome = inactive
Cluap1 [DRSC20637] — firefly Hh reporter signal, replicate 1 = 1.13e5; firefly Hh reporter signal, replicate 2 = 3.72e5; Renilla reference signal, replicate 1 = 3894; Renilla reference signal, replicate 2 = 15853; Outcome = inactive
nrv3 [DRSC03097] — firefly Hh reporter signal, replicate 1 = 6.11e5; firefly Hh reporter signal, replicate 2 = 1.23e5; Renilla reference signal, replicate 1 = 5416; Renilla reference signal, replicate 2 = 5416; Outcome = inactive
AOX3 [DRSC15955] — firefly Hh reporter signal, replicate 1 = 2.05e5; firefly Hh reporter signal, replicate 2 = 76769; Renilla reference signal, replicate 1 = 7904; Renilla reference signal, replicate 2 = 1008; Outcome = inactive
CG4483 [DRSC10426] — firefly Hh reporter signal, replicate 1 = 5.63e5; firefly Hh reporter signal, replicate 2 = 79688; Renilla reference signal, replicate 1 = 2667; Renilla reference signal, replicate 2 = 2667; Outcome = inactive
